Laboratory results as given in paper doi:10.1101/2023.02.07.527531.

By UniProt entry, the sequences of proteins in these tests, tags left out. Where a name states a change or a piece, a line headed by the entry shows the natural chain unless it says otherwise.
UniProt P0AE72, whole entry, stated change not applied: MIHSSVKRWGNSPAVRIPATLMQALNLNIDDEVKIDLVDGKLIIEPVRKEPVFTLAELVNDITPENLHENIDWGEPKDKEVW

Target: FLAG-MazE (E. coli) (UniProt P0AE72)
Assay: affinity purification with mass spectrometry

With “MazF(E24A) (from UniProt P0AE70 1-111) (enzyme)” the binding was “binds”.

Results are given in words; binding and its absence hold for the method and conditions named. Binding seen in cells or lysates may run through a third protein. These calls come from enrichment with a bait or labelling near it, and not all partners need be listed.
